From the supplement of paper PMC3353916 come the findings set out here.

In the series the test system is Sindbis virus TE/5'2J-GFP. The experiment in a line: percent infected (GFP+ in RFP+ ISG-expressing cells); higher = more infection (less antiviral activity). The settings on record: experiment: primary screen (single well).

Single values of this set are uncertain.

Take “MPLELTQSRVQKIWVPVDHRPSLPRSCGPKLTNSPTVIVMVGLPARGKTYISKKLTRYLNWIGVPTKVFNVGEYRREAVKQYSSYNFFRPDNEEAMKVRKQCALAALRDVKSYLAKEGGQIAVFDATNTTRERRHMILHFAKENDFKAFFIESVCDDPTVVASNIMEVKISSPDYKDCNSAEAMDDFMKRISCYEASYQPLDPDKCDRDLSLIKVIDVGRRFLVNRVQDHIQSRIVYYLMNIHVQPRTIYLCRHGENEHNLQGRIGGDSGLSSRGKKFASALSKFVEEQNLKDLRVWTSQLKSTIQTAEALRLPYEQWKALNEIDAGVCEELTYEEIRDTYPEEYALREQDKYYYRYPTGESYQDLVQRLEPVIMELERQENVLVICHQAVLRCLLAYFLDKSAEEMPYLKCPLHTVLKLTPVAYGCRVESIYLNVESVCTHRERSEDAKKGPNPLMRRNSVTPLASPEPTKKPRINSFEEHVASTSAALPSCLPPEVPTQLPGQNMKGSRSSADSSRKH [PFKFB3]”: the percent infected (BHK/HA-Zeo (control)) is 94.4%.

Regarding “MKTFTWTLGVLFFLLVDTGHCRGGQFKIKKINQRRYPRATDGKEEAKKCAYTFLVPEQRITGPICVNTKGQDASTIKDMITRMDLENLKDVLSRQKREIDVLQLVVDVDGNIVNEVKLLRKESRNMNSRVTQLYMQLLHEIIRKRDNSLELSQLENKILNVTTEMLKMATRYRELEVKYASLTDLVNNQSVMITLLEEQCLRIFSRQDTHVSPPLVQVVPQHIPNSQQYTPGLLGGNEIQRDPGYPRDLMPPPDLATSPTKSPFKIPPVTFINEGPFKDCQQAKEAGHSVSGIYMIKPENSNGPMQLWCENSLDPGGWTVIQKRTDGSVNFFRNWENYKKGFGNIDGEYWLGLENIYMLSNQDNYKLLIELEDWSDKKVYAEYSSFRLEPESEFYRLRLGTYQGNAGDSMMWHNGKQFTTLDRDKDMYAGNCAHFHKGGWWYNACAHSNLNGVWYRGGHYRSKHQDGIFWAEYRGGSYSLRAVQMMIKPID [ANGPTL1]”, the percent infected is, setting by setting: (BHK/HA-Zeo (control)) 96.4%; (BHK/NZAP-Zeo (ZAP)) 85.7%.

ISG20: the percent infected is, setting by setting: (BHK/HA-Zeo (control)) 99.1%; (BHK/NZAP-Zeo (ZAP)) 98.5%.

As to “MEQWDHFHNQQEDTDSCSESVKFDARSMTALLPPNPKNSPSLQEKLKSFKAALIALYLLVFAVLIPLIGIVAAQLLKWETKNCSVSSTNANDITQSLTGKGNDSEEEMRFQEVFMEHMSNMEKRIQHILDMEANLMDTEHFQNFSMTTDQRFNDILLQLSTLFSSVQGHGNAIDEISKSLISLNTTLLDLQLNIENLNGKIQENTFKQQEEISKLEERVYNVSAEIMAMKEEQVHLEQEIKGEVKVLNNITNDLRLKDWEHSQTLRNITLIQGPPGPPGEKGDRGPTGESGPRGFPGPIGPPGLKGDRGAIGFPGSRGLPGYAGRPGNSGPKGQKGEKGSGNTLTPFTKVRLVGGSGPHEGRVEILHSGQWGTICDDRWEVRVGQVVCRSLGYPGVQAVHKAAHFGQGTGPIWLNEVFCFGRESSIEECKIRQWGTRACSHSEDAGVTCTL [MSR1]”, the percent infected (BHK/HA-Zeo (control)) came to 98.6% and the percent infected (BHK/NZAP-Zeo (ZAP)) was determined as 97.2%.

With “MAPEINLPGPMSLIDNTKGQLVVNPEALKILSAITQPVVVVAIVGLYRTGKSYLMNKLAGKKNGFSLGSTVKSHTKGIWMWCVPHPKKPEHTLVLLDTEGLGDIEKGDNENDSWIFALAILLSSTFVYNSMGTINQQAMDQLHYVTELTDRIKANSSPGNNSVDDSADFVSFFPAFVWTLRDFTLELEVDGEPITADDYLELSLKLRKGTDKKSKSFNDPRLCIRKFFPKRKCFVFDWPAPKKYLAHLEQLKEEELNPDFIEQVAEFCSYILSHSNVKTLSGGIPVNGPRLESLVLTYVNAISSGDLPCMENAVLALAQIENSAAVEKAIAHYEQQMGQKVQLPTETLQELLDLHRDSEREAIEVFMKNSFKDVDQMFQRKLGAQLEARRDDFCKQNSKASSDCCMALLQDIFGPLEEDVKQGTFSKPGGYRLFTQKLQELKNKYYQVPRKGIQAKEVLKKYLESKEDVADALLQTDQSLSEKEKAIEVERIKAESAEAAKKMLEEIQKKNEEMMEQKEKSYQEHVKQLTEKMERDRAQLMAEQEKTLALKLQEQERLLKEGFENESKRLQKDIWDIQMRSKSLEPICNIL [GBP2]”, the percent infected was 74.4% (BHK/HA-Zeo (control)) and 59.4% (BHK/NZAP-Zeo (ZAP)).

For “MVMFKKIKSFEVVFNDPEKVYGSGEKVAGRVIVEVCEVTRVKAVRILACGVAKVLWMQGSQQCKQTSEYLRYEDTLLLEDQPTGENEMVIMRPGNKYEYKFGFELPQGPLGTSFKGKYGCVDYWVKAFLDRPSQPTQETKKNFEVVDLVDVNTPDLMAPVSAKKEKKVSCMFIPDGRVSVSARIDRKGFCEGDEISIHADFENTCSRIVVPKAAIVARHTYLANGQTKVLTQKLSSVRGNHIISGTCASWRGKSLRVQKIRPSILGCNILRVEYSLLIYVSVPGSKKVILDLPLVIGSRSGLSSRTSSMASRTSSEMSWVDLNIPDTPEAPPCYMDVIPEDHRLESPTTPLLDDMDGSQDSPIFMYAPEFKFMPPPTYTEVDPCILNNNVQ [TXNIP]”, the percent infected turned out to be 97.9% (BHK/HA-Zeo (control)) and 95.1% (BHK/NZAP-Zeo (ZAP)).

For the substance “MPSGCHSSPPSGLRGDMASLVPLSPYLSPTVLLLVSCDLGFVRADRPPSPVNVTVTHLRANSATVSWDVPEGNIVIGYSISQQRQNGPGQRVIREVNTTTRACALWGLAEDSDYTVQVRSIGLRGESPPGPRVHFRTLKGSDRLPSNSSSPGDITVEGLDGERPLQTGEVVIIVVVLLMWAAVIGLFCRQYDIIKDNDSNNNPKEKGKGPEQSPQGRPVGTRQKKSPSINTIDV [FNDC4]”, the percent infected by setting is: (BHK/HA-Zeo (control)) 98.2%; (BHK/NZAP-Zeo (ZAP)) 93.8%.

“MSEVTKNSLEKILPQLKCHFTWNLFKEDSVSRDLEDRVCNQIEFLNTEFKATMYNLLAYIKHLDGNNEAALECLRQAEELIQQEHADQAEIRSLVTWGNYAWVYYHLGRLSDAQIYVDKVKQTCKKFSNPYSIEYSELDCEEGWTQLKCGRNERAKVCFEKALEEKPNNPEFSSGLAIAMYHLDNHPEKQFSTDVLKQAIELSPDNQYVKVLLGLKLQKMNKEAEGEQFVEEALEKSPCQTDVLRSAAKFYRRKGDLDKAIELFQRVLESTPNNGYLYHQIGCCYKAKVRQMQNTGESEASGNKEMIEALKQYAMDYSNKALEKGLNPLNAYSDLAEFLETECYQTPFNKEVPDAEKQQSHQRYCNLQKYNGKSEDTAVQHGLEGLSISKKSTDKEEIKDQPQNVSENLLPQNAPNYWYLQGLIHKQNGDLLQAAKCYEKELGRLLRDAPSGIGSIFLSASELEDGSEEMGQGAVSSSPRELLSNSEQLN [IFIT3]” yielded a percent infected (BHK/HA-Zeo (control)) of 95.7% and a percent infected (BHK/NZAP-Zeo (ZAP)) of 89%.

With “MNTSIPYQQNPYNPRGSSNVIQCYRCGDTCKGEVVRVHNNHFHIRCFTCQVCGCGLAQSGFFFKNQEYICTQDYQQLYGTRCDSCRDFITGEVISALGRTYHPKCFVCSLCRKPFPIGDKVTFSGKECVCQTCSQSMASSKPIKIRGPSHCAGCKEEIKHGQSLLALDKQWHVSCFKCQTCSVILTGEYISKDGVPYCESDYHAQFGIKCETCDRYISGRVLEAGGKHYHPTCARCVRCHQMFTEGEEMYLTGSEVWHPICKQAARAEKKLKHRRTSETSISPPGSSIGSPNRVICAKVDNEILNYKDLAALPKVKSIYEVQRPDLISYEPHSRYMSDEMLERCGYGESLGTLSPYSQDIYENLDLRQRRASSPGYIDSPTYSRQGMSPTFSRSPHHYYRSGPESGRSSPYHSQLDVRSSTPTSYQAPKHFHIPAGDSNIYRKPPIYKRHGDLSTATKSKTSEDISQTSKYSPIYSPDPYYASESEYWTYHGSPKVPRARRFSSGGEEDDFDRSMHKLQSGIGRLILKEEMKARSSSYADPWTPPRSSTSSREALHTAGYEMSLNGSPRSHYLADSDPLISKSASLPAYRRNGLHRTPSADLFHYDSMNAVNWGMREYKIYPYELLLVTTRGRNRLPKDVDRTRLERHLSQEEFYQVFGMTISEFDRLALWKRNELKKQARLF [ABLIM3]”, the percent infected (BHK/NZAP-Zeo (ZAP)) turned out to be 98.4%.

As to “MAQEFVNCKIQPGKVVVFIKPTCPYCRRAQEILSQLPIKQGLLEFVDITATNHTNEIQDYLQQLTGARTVPRVFIGKDCIGGCSDLVSLQQSGELLTRLKQIGALQ [GLRX]”, the percent infected by setting is: (BHK/HA-Zeo (control)) 93.6%; (BHK/NZAP-Zeo (ZAP)) 88.4%.

For “MDAPHSKAALDSINELPENILLELFTHVPARQLLLNCRLVCSLWRDLIDLMTLWKRKCLREGFITKDWDQPVADWKIFYFLRSLHRNLLRNPCAEEDMFAWQIDFNGGDRWKVESLPGAHGTDFPDPKVKKYFVTSYEMCLKSQLVDLVAEGYWEELLDTFRPDIVVKDWFAARADCGCTYQLKVQLASADYFVLASFEPPPVTIQQWNNATWTEVSYTFSDYPRGVRYILFQHGGRDTQYWAGWYGPRVTNSSIVVSPKMTRNQASSEAQPGQKHGQEEAAQSPYRAVVQIF [FBXO6]”, the percent infected by setting is: (BHK/HA-Zeo (control)) 96.8%; (BHK/NZAP-Zeo (ZAP)) 81.9%.

For AHNAK2, the percent infected worked out at 98.6% (BHK/HA-Zeo (control)) and 97.8% (BHK/NZAP-Zeo (ZAP)).

Take “MALLFLLPLVMQGVSRAEMGTADLGPSSVPTPTNVTIESYNMNPIVYWEYQIMPQVPVFTVEVKNYGVKNSEWIDACINISHHYCNISDHVGDPSNSLWVRVKARVGQKESAYAKSEEFAVCRDGKIGPPKLDIRKEEKQIMIDIFHPSVFVNGDEQEVDYDPETTCYIRVYNVYVRMNGSEIQYKILTQKEDDCDEIQCQLAIPVSSLNSQYCVSAEGVLHVWGVTTEKSKEVCITIFNSSIKGSLWIPVVAALLLFLVLSLVFICFYIKKINPLKEKSIILPKSLISVVRSATLETKPESKYVSLITSYQPFSLEKEVVCEEPLSPATVPGMHTEDNPGKVEHTEELSSITEVVTTEENIPDVVPGSHLTPIERESSSPLSSNQSEPGSIALNSYHSRNCSESDHSRNGFDTDSSCLESHSSLSDSEFPPNNKGEIKTEGQELITVIKAPTSFGYDKPHVLVDLLVDDSGKESLIGYRPTEDSKEFS [IFNGR1]”: the percent infected stood at 97.7% (BHK/HA-Zeo (control)) and 94% (BHK/NZAP-Zeo (ZAP)).

As for “MEEDDSYVPSDLTAEERQELENIRRRKQELLADIQRLKDEIAEVANEIENLGSTEERKNMQRNKQVAMGRKKFNMDPKKGIQFLIENDLLKNTCEDIAQFLYKGEGLNKTAIGDYLGERDEFNIQVLHAFVELHEFTDLNLVQALRQFLWSFRLPGEAQKIDRMMEAFAQRYCQCNNGVFQSTDTCYVLSFAIIMLNTSLHNPNVKDKPTVERFIAMNRGINDGGDLPEELLRNLYESIKNEPFKIPEDDGNDLTHTFFNPDREGWLLKLGGGRVKTWKRRWFILTDNCLYYFEYTTDKEPRGIIPLENLSIREVEDSKKPNCFELYIPDNKDQVIKACKTEADGRVVEGNHTVYRISAPTPEEKEEWIKCIKAAISRDPFYEMLAARKKKVSSTKRH [PSCD1]”, the percent infected is, setting by setting: (BHK/HA-Zeo (control)) 98.4%; (BHK/NZAP-Zeo (ZAP)) 97.3%.

Turning to “MSFFQLLMKRKELIPLVVFMTVAAGGASSFAVYSLWKTDVILDRKKNPEPWETVDPTVPQKLITINQQWKPIEELQNVQRVTK [C15orf48]”, the percent infected (BHK/HA-Zeo (control)) is 95.1% and the percent infected (BHK/NZAP-Zeo (ZAP)) came out at 85.5%.

In turn, “MNHIVQTFSPVNSGQPPNYEMLKEEQEVAMLGVPHNPAPPMSTVIHIRSETSVPDHVVWSLFNTLFMNTCCLGFIAFAYSVKSRDRKMVGDVTGAQAYASTAKCLNIWALILGIFMTILLIIIPVLVVQAQR [IFITM2]” showed a percent infected (BHK/HA-Zeo (control)) of 95.6% and a percent infected (BHK/NZAP-Zeo (ZAP)) of 90.9%.
